# Cleaved PARP after 72 h of treatment

Values as published with doi:10.1371/journal.pone.0140310, rounded.

Compounds and concentrations:
ENMD-2076: Cc1cc(Nc2cc(N3CCN(C)CC3)nc(/C=C/c3ccccc3)n2)n[nH]1 at 0.2 µM
BI-78D3: O=c1[nH]nc(Sc2ncc([N+](=O)[O-])s2)n1-c1ccc2c(c1)OCCO2 at 1 µM
stibogluconate: O=C(O)[C@@H]1[O][Sb](=[O])([O][Sb]2(=[O])[O][C@H]([C@H](O)CO)[C@H](O)[C@H](C(=O)O)[O]2)[O][C@H]([C@H](O)CO)[C@@H]1O (some centres not stated) at 10 µM
pazopanib: Cc1ccc(Nc2nccc(N(C)c3ccc4c(C)n(C)nc4c3)n2)cc1S(N)(=O)=O at 2 µM
PF-04217903: OCCn1cc(-c2cnc3nnn(Cc4ccc5ncccc5c4)c3n2)cn1 at 5 µM
perifosine: CCCCCCCCCCCCCCCCCCOP(=O)([O-])OC1CC[N+](C)(C)CC1 at 2 µM
GSK650394: O=C(O)c1ccc(-c2c[nH]c3ncc(-c4ccccc4)cc23)cc1C1CCCC1 at 0.8 µM
erlotinib: C#Cc1cccc(Nc2ncnc3cc(OCCOC)c(OCCOC)cc23)c1 at 4 µM
vorinostat: O=C(CCCCCCC(=O)Nc1ccccc1)NO at 0.4 µM

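Human melanoma cell lines in 1,536-well plates were treated with two drugs together for 72 h, then fixed, stained and imaged. Each value is the cleaved-PARP-positive fraction of nuclei relative to DMSO-treated wells, in %, so that 100 equals the control and higher values mean more apoptosis. Every drug was used at one fixed concentration, the higher of two screened. The file gives one value for each pair and line, without errors, so small differences may be noise. The marker varies much from line to line, for technical or biological reasons.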
An unselected part of the screen is shown.
An entry leaves out what has no value listed here.
A dash means that no value is listed here.

Pair | A101D | MeWo | LOX IMVI | C32 | G-361 | WM3619 | IPC-298 | MZ2-MEL
PF-04217903 + ENMD-2076 | 55.8 | 101 | 43.6 | 86.1 | 124 | 377 | 61.5 | 169
stibogluconate + PF-04217903 | 246 | 136 | 382 | 83.1 | 146 | 99.8 | 166 | 165
PF-04217903 + GSK650394 | 54.1 | 122 | 106 | 59.8 | 273 | 212 | 353 | 189
GSK650394 + vorinostat | 74.2 | 131 | 23.6 | 143 | 220 | 142 | 78.9 | 176
BI-78D3 + perifosine | 44.2 | 81.0 | 115 | 178 | 163 | 118 | 51.5 | 84.2
stibogluconate + GSK650394 | 141 | 117 | 910 | 139 | 311 | 87.3 | 105 | 30.0
vorinostat + stibogluconate | 117 | 57.8 | 156 | 66.1 | 30.8 | 140 | 45.7 | 142
erlotinib + ENMD-2076 | 256 | 115 | 70.6 | 99.8 | 186 | 133 | 351 | 122
perifosine + ENMD-2076 | 102 | 118 | 151 | 230 | 68.2 | 109 | 70.3 | 81.5
pazopanib + PF-04217903 | 51.7 | 69.3 | 132 | 153 | 79.0 | 85.9 | 156 | 157
erlotinib + perifosine | 147 | 76.0 | 50.8 | 221 | 174 | 112 | 368 | 82.5
erlotinib + pazopanib | 106 | 110 | 139 | 96.5 | 166 | 125 | 265 | 87.2
perifosine + pazopanib | 54.6 | 55.8 | 267 | 433 | 142 | 99.5 | 157 | 88.4
ENMD-2076 + stibogluconate | 86.9 | 124 | 175 | 189 | 71.6 | 115 | 99.5 | 99.1
GSK650394 + erlotinib | 292 | 314 | 108 | 80.1 | 197 | 114 | 49.9 | 203
vorinostat + BI-78D3 | 73.3 | 156 | 222 | 142 | 142 | 149 | 70.7 | 118
erlotinib + BI-78D3 | 119 | 113 | 143 | 53.4 | 130 | 111 | 202 | 377
ENMD-2076 + pazopanib | 169 | 54.0 | 180 | 53.9 | 152 | 133 | 143 | 42.3
pazopanib + stibogluconate | 80.9 | 38.9 | 144 | 54.6 | 107 | 99.1 | 176 | 47.8
BI-78D3 + pazopanib | 89.1 | 106 | 81.6 | 75.8 | 134 | 103 | 61.9 | 107
perifosine + GSK650394 | 172 | 93.9 | 117 | 80.1 | 142 | 100 | 311 | 133
PF-04217903 + perifosine | 74.4 | 142 | 162 | 82.3 | 69.5 | 84.3 | 332 | 463
BI-78D3 + PF-04217903 | 98.7 | 128 | 135 | 125 | 67.0 | 101 | 72.1 | 80.4
stibogluconate + perifosine | 60.8 | 101 | 159 | 35.9 | 92.7 | 63.4 | 32.7 | 70.2
vorinostat + ENMD-2076 | 66.0 | 77.0 | 82.0 | 208 | 131 | 314 | 171 | 127
erlotinib + stibogluconate | 115 | 125 | 146 | 105 | 97.7 | 84.9 | 177 | 32.6
vorinostat + PF-04217903 | 48.5 | 25.3 | 238 | 66.5 | 130 | 122 | 62.6 | -
stibogluconate + BI-78D3 | 75.2 | 65.7 | 126 | 546 | 155 | 102 | 64.3 | 187
vorinostat + erlotinib | 132 | 135 | 108 | 154 | 40.7 | 134 | 136 | 70.0
pazopanib + vorinostat | 374 | 139 | 116 | 53.8 | 211 | 146 | 223 | 144

Repeated from the top, 3 entries:

{"pair": "PF-04217903 + ENMD-2076", "A101D": 55.8, "MeWo": 101, "LOX IMVI": 43.6, "C32": 86.1, "G-361": 124, "WM3619": 377, "IPC-298": 61.5, "MZ2-MEL": 169}
{"pair": "stibogluconate + PF-04217903", "A101D": 246, "MeWo": 136, "LOX IMVI": 382, "C32": 83.1, "G-361": 146, "WM3619": 99.8, "IPC-298": 166, "MZ2-MEL": 165}
{"pair": "PF-04217903 + GSK650394", "A101D": 54.1, "MeWo": 122, "LOX IMVI": 106, "C32": 59.8, "G-361": 273, "WM3619": 212, "IPC-298": 353, "MZ2-MEL": 189}